Data set [1] is described as follows: general procedure: Fmoc solid-phase peptide synthesis; Rink-Amide-AM-PS resin. As to conditions: whole synthesis, scale 0.100 mmol, TFA salts; acetate salt by ion exchange.
Data set [2] can be described thus: general procedure: Fmoc solid-phase peptide synthesis; 2-chlorotrityl chloride-PS-resin (C-terminal acids); Fmoc Rink-Amide-AM-PS-resin (amides); BAL-AM-PS-resin loaded with a. As to conditions: late stage modification step, TFA salts; acetate salt by ion exchange.

Square brackets hold non-standard residues; d marks the D form. pGlu = O=C1CC[C@@H](C(=O)O)N1; Nle = CCCC[C@H](N)C(=O)O

For the substance “[pGlu]RPRLCHKGP[Nle]CF-NH2 (cysteine pairing not given here)”, the isolated mass in data set [1] is listed as 50.5 mg. As to “[pGlu]RPRLCHKGP[Nle]CF-OH (cysteine pairing not given here)”, in data set [2], the step yield amounted to 13.4%. Still for that read-out and setting: the same measure for “pE-R-P-R-L-C*-H-N^6-[[(1α,8α,9α)-bicyclo[6.1.0]non-4-yn-9-ylmethoxy]carbonyl]-K-G-P-Nle-C*-F-OH(Disulfide C^6-C^12)”: 61%.

The record behind these values is patent US9340582B2 (NOVARTIS AG, priority 2013, dated 2016).
